Tests used:
[1] = molecular target: T1, CAL bait (GAL4 (1-147) fused to the intact CAL coding region in pBI-880) (Arabidopsis thaliana); test: yeast two-hybrid library screen with full-length CAL bait, HIS3 and lacZ reporters
T1 construct: range 1-147; also called CAULIFLOWER; full-length CAL cDNA as bait
Experimental: Yeast two-hybrid screens were performed to identify candidate genes whose products interact with AP1 and CAL. The two-hybrid library screens were performed in the YPB2 strain [MATa ara3 his3 ade2 lys2 trp1 leu2, 112 can^r gal4 gal80 LYS2::GAL1-HIS3, URA3::(GAL1UAS17mers)-lacZ]. Yeast were transformed using a modified version of the lithium acetate method of Schiest1 and Gietz, Curr. Genet. 16, 339-346 (1989).
The two-hybrid cDNA expression library was constructed in the pBI771 (prey) vector using tissue of whole plants at different stages. The bait constructs were prepared by inserting the intact CAL coding region and a truncated form of AP1 into the pBI-880 vector (a variant of pPC62 described in Chevray and Nathans Proc. Natl. Acad. Sci USA 5789-5793 (1992); Kohalmi et al., Plant. Mol. Biol. Man. M1, 1-30 (1998)) by inserting the corresponding coding region in-frame at the 3′ end of the GAL4 (1-147) sequence contained in the centromere LEU2 plasmid. These baits tested negative for the ability to activate transcription of both reporters, alone as well as in combination with each the prey vector and an inert control prey, the Arabidopsis cruciferin seed storage protein.
The transformants were selected on supplemented synthetic dextrose medium lacking leucine, tryptophan and histidine but containing 5 mM 3-amino-1,2,4-triazole. […]

[2] = molecular target: T1, CAL bait (GAL4 (1-147) fused to the …); test: yeast two-hybrid retest with CAL bait
Description: To confirm the specificity of the observed interactions, the longest and shortest clone of each class was transformed back into a yeast strain that contained either the CAL bait, the bait vector, or an inert control bait, cruciferin. The strains containing the CAL bait tested positive for both B-Gal activity and HIS prototrophy. The strains containing the bait vector or the cruciferin bait were negative in both assays, as they were not able to grow on plates lacking histidine and the yeast colonies were completely white in the B-Gal assay.

| Binder | binding result [1] | binding result [2] |
| --- | --- | --- |
| SUPPRESSOR OF CO OVEREXPRESSION 1 (SOC1) clones isolated in the CAL two-hybrid screen (seven clones) (other, Group of seven library clones with different 5' ends; also called AGL20; second class; not shown: fusion partner encoded by prey vector pBI771) MVRGKTQMKRIENATSRQVTFSKRRNGLLKKAFELSVLCDAEVSLIIFSPKGKLYEFASSNMQDTIDRYLRHTKDRVSTKPVSEENMQHLKYEAANMMKKIEQLEASKRKLLGEGIGTCSIEELQQIEQQLEKSVKCIRARKTQVFKEQIEQLKQKEKALAAENEKLSEKWGSHESEVWSNKNQESTGRGDEESSPSSEVETQLFIGLPCSSRK | binds | – |
| longest SOC1 clone from the CAL two-hybrid screen (other, also called AGL20; longest clone of each class; not shown: fusion partner encoded by prey vector pBI771) MVRGKTQMKRIENATSRQVTFSKRRNGLLKKAFELSVLCDAEVSLIIFSPKGKLYEFASSNMQDTIDRYLRHTKDRVSTKPVSEENMQHLKYEAANMMKKIEQLEASKRKLLGEGIGTCSIEELQQIEQQLEKSVKCIRARKTQVFKEQIEQLKQKEKALAAENEKLSEKWGSHESEVWSNKNQESTGRGDEESSPSSEVETQLFIGLPCSSRK | – | binds |

From patent US20040229366A1 (University of California, published 2004)
